This note sets out measurements from patent US4075194A (Yeda Research and Development Co., Ltd., priority 1976, dated 1978).

A short description of this data set: general procedure: Boc solid-phase peptide synthesis; chloromethylated resin (1.2 meq of Cl/g); 0.36 mmol of valine per g. Conditions: whole synthesis.

Ends that are not written are not given here.

In the case of LNFPTSEITLK, the crude mass was determined as 650 mg. In addition, where the note is “scale of the general procedure 5 g of chloromethylated resin”, the crude yield was 35%.
